PubChem BioAssay AID686943 | Drosophila RNAi Screening Center – 2013

- Screen: 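Search across the genome for regulators of signalling from receptor tyrosine kinase to ERK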 (primary screen)
- System: Drosophila S2R+ haemocyte-like cells expressing YFP-tagged ERK (Rolled)
- Reagent: long dsRNA against Drosophila genes
- Challenge: insulin stimulation versus unstimulated cells; dose and duration not given
- Read-out: 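Antibody staining for doubly phosphorylated ERK divided by ERK-YFP signal, as plate z-scores, in insulin-treated and untreated cells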
- Reading the numbers: replicate 1, z-score of dpERK with insulin: higher = more active ERK per ERK-YFP after insulin
The deposit covers about 23,000 reagents; below is a random part of those with a known target gene and a result. 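Extra replicates exist only for a retested subset of genes; insulin dose and duration not given; both raised and lowered dpERK matter.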 A plus sign joins genes that one reagent is predicted to hit. Not all columns of the deposit are shown. Not given: the amount of reagent, the time to read-out.

fs(1)N (female sterile (1) Nasrat) [DRSC18578]
- replicate 1, z-score of dpERK with insulin: -0.25

CG4741 [DRSC04228]
- replicate 1, z-score of dpERK with insulin: -0.16

CG4741 [DRSC04485]
- replicate 1, z-score of dpERK with insulin: -0.13

CG14011 [DRSC02343]
- replicate 1, z-score of dpERK with insulin: -0.54

CG6425 [DRSC16038]
- replicate 1, z-score of dpERK with insulin: -0.37

CG32457 [DRSC11596]
- replicate 1, z-score of dpERK with insulin: 1.04

CG32457 [DRSC21722]
- replicate 1, z-score of dpERK with insulin: -0.57

Mau2 [DRSC15550]
- replicate 1, z-score of dpERK with insulin: -0.51

CG5388 [DRSC15789]
- replicate 1, z-score of dpERK with insulin: 0.13

Sytbeta (Synaptotagmin beta) [DRSC10009]
- replicate 1, z-score of dpERK with insulin: 0.92

Sytbeta (Synaptotagmin beta) [DRSC10351]
- replicate 1, z-score of dpERK with insulin: -0.27

didum (dilute class unconventional myosin) [DRSC07603]
- replicate 1, z-score of dpERK with insulin: 0.2

Cyp12a5 (Cytochrome P450 12a5) [DRSC16621]
- replicate 1, z-score of dpERK with insulin: -0.05

CG3769 [DRSC02723]
- replicate 1, z-score of dpERK with insulin: 0.77

Oscillin [DRSC03001]
- replicate 1, z-score of dpERK with insulin: -0.3

CG11635 [DRSC06075]
- replicate 1, z-score of dpERK with insulin: 0.11

CG17075 [DRSC00483]
- replicate 1, z-score of dpERK with insulin: 0.82

CG31313 [DRSC13044]
- replicate 1, z-score of dpERK with insulin: -0.61

Gk2 (Glycerol kinase 2) [DRSC08610]
- replicate 1, z-score of dpERK with insulin: 0.46

stops (slow termination of phototransduction) [DRSC15095]
- replicate 1, z-score of dpERK with insulin: 0.73

stops (slow termination of phototransduction) [DRSC15096]
- replicate 1, z-score of dpERK with insulin: -0.31

stops (slow termination of phototransduction) [DRSC15097]
- replicate 1, z-score of dpERK with insulin: -0.5

Coq7 + shf [DRSC18448]
- replicate 1, z-score of dpERK with insulin: -0.41

CG9072 [DRSC20147]
- replicate 1, z-score of dpERK with insulin: 0.28

CG43610 [DRSC00949]
- replicate 1, z-score of dpERK with insulin: -1.02

Obp50b + Obp50c [DRSC21818]
- replicate 1, z-score of dpERK with insulin: 0.17

Had1 (beta Hydroxy acid dehydrogenase 1) [DRSC20216]
- replicate 1, z-score of dpERK with insulin: 1.49

COX4L (Cytochrome c oxidase subunit 4-like) [DRSC04841]
- replicate 1, z-score of dpERK with insulin: 0.2

CG11149 [DRSC02130]
- replicate 1, z-score of dpERK with insulin: -0.71

Pp2B-14D (Protein phosphatase 2B at 14D) [DRSC20270]
- replicate 1, z-score of dpERK with insulin: -1.56

LKRSDH (Lysine ketoglutarate reductase/saccharopine dehydrogenase) [DRSC03015]
- replicate 1, z-score of dpERK with insulin: 0.34

mRpS25 (mitochondrial ribosomal protein S25) [DRSC19598]
- replicate 1, z-score of dpERK with insulin: -0.28

CG34234 + Dh44-R2 [DRSC07278]
- replicate 1, z-score of dpERK with insulin: 0.34

CG10340 [DRSC14232]
- replicate 1, z-score of dpERK with insulin: 0.07

Apl (Apollo) [DRSC10350]
- replicate 1, z-score of dpERK with insulin: 0.05

SK (small conductance calcium-activated potassium channel) [DRSC17387]
- replicate 1, z-score of dpERK with insulin: 1.04

SK (small conductance calcium-activated potassium channel) [DRSC17751]
- replicate 1, z-score of dpERK with insulin: 1.69

SK (small conductance calcium-activated potassium channel) [DRSC17887]
- replicate 1, z-score of dpERK with insulin: -1.58

SK (small conductance calcium-activated potassium channel) [DRSC17888]
- replicate 1, z-score of dpERK with insulin: -0.95

SK (small conductance calcium-activated potassium channel) [DRSC18353]
- replicate 1, z-score of dpERK with insulin: -0.64

SK (small conductance calcium-activated potassium channel) [DRSC21840]
- replicate 1, z-score of dpERK with insulin: 0.11
